Measurements reported in PubChem BioAssay AID1259308 (NCATS, 2017).
In all, the deposit lists about 59,000 reagents; this is a random part of them. In the full data, about 1,510 (2.6%) got an active call. 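Calls use total luciferase alone and ignore viability, so some active siRNAs may act by altering cell number.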 Unmarked entries are inactive. Reagents against one gene are numbered here. Not all columns of the deposit are shown.

Purpose: 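Candidate targets for better recombinant protein yield in mammalian cells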 (primary screen)
System: human HEK293 embryonic kidney cells stably expressing firefly luciferase (HEK-CMV-Luc2-Hygro)
Knock-down reagent: single siRNA against human genes, 0.8 pmol siRNA per well
Duration: 72 h
Read-out: 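Reporter luminescence and viable-cell signal on separate replicate plates, given as percent of non-targeting control and median/MAD z-scores, plus per-cell luciferase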
Direction: total luciferase, z-score: higher = more reporter protein produced
Call rule: 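An siRNA counts as active if its total luciferase robust z-score exceeds 3; genes with two or more such siRNAs out of three were retested with fresh siRNAs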
Calls: active = raised luciferase; inactive = no rise

total luciferase, z-score, by gene and reagent
PRSS57: #1 0.759; #2 1.95; #3 0.578
MCM7: #1 0.174; #2 0.401; #3 -2.4
DRC7: #1 0.172; #2 -0.318; #3 -0.282
VSIG8: #1 2.95; #2 -0.504; #3 3.87 (active)
SMAD4: #1 0.41; #2 0.646; #3 -0.58
CAPS: #1 -1.77; #2 -1.95; #3 -0.24
THAP6: #1 1.28; #2 -0.541; #3 -0.0652
ZNF212: #1 0.498; #2 0.682; #3 2.44
NUP214: #1 -0.466; #2 -0.355; #3 1.09
MNT: #1 -0.439; #2 -0.123; #3 0.458
HIVEP1: #1 0.879; #2 0.61; #3 1.88
UTS2R: #1 -0.278; #2 -0.211; #3 -1.21
TLDC2: #1 0.376; #2 -1.12; #3 0.65

Part of the list above, set out differently:
Gene,siRNA no.,"total luciferase, z-score"
MCM7,2,0.401
MCM7,3,-2.4
DRC7,1,0.172
DRC7,2,-0.318
DRC7,3,-0.282
VSIG8,1,2.95
VSIG8,2,-0.504
VSIG8,3,3.87 (active)
SMAD4,1,0.41

The listing continues:
total luciferase, z-score, by gene and reagent
HBQ1: #1 0.00691; #2 0.217; #3 -0.632
PIGL: #1 -1.43; #2 0.44; #3 -2.23
UGT2A1: #1 -0.173; #2 1.37; #3 1.08
ICAM2: #1 2.72; #2 -0.0413; #3 -0.126
ERFL: #1 -1.39; #2 0.833; #3 -1.74
RPL32P19: #1 0.284; #2 1.65; #3 1.48
TREML4: #1 1.23; #2 0.881; #3 -0.202
IQCN: #1 2.83; #2 1.08; #3 -0.59
TRAPPC2: #1 -1.56; #2 2.43; #3 -0.778
FABP5: #1 -0.387; #2 2.03; #3 -0.234
HEMK1: #1 -0.734; #2 0.179; #3 -2.26
EXOSC1: #1 -0.164; #2 -0.419; #3 0.973
